Consider 32 compounds from PubChem BioAssay AID248 (DTP/NCI, 2004).

The list does not hold the whole screen: it gathers tests that were run many times, whatever their T/C, doses with no T/C, and many T/C values between a quarter and a half above the control. Other doses and runs of a compound stand elsewhere. T/C is the treated group as % of the vehicle group. Some doses have a count of surviving animals in place of a T/C: the source holds a T/C of zero for them, seemingly a mark for toxic or unscored doses. Some doses without a T/C left all or most animals alive at the check, yet need not have been tolerated: survival well below the control is almost never listed, so the zero probably covers shortened survival too. Survivors were counted at the toxicity check, usually on the fifth day, unless a day is given; later deaths do not show. Schedule codes are those of the source, taken here to give the interval after Q, in days (D) or hours (H), and the number of doses after X. Some entries hold several experiments; their values stand side by side, smallest first. Some schedules carry Z or #; the key to these is not given. For survival time, the PubChem record calls one and a half times the control and up active, and a quarter to a half above the control has no call in these data; cut-offs in other NCI protocols can differ.

This assay has as its system L1210 leukemia ip in BDF1 mice, survival T/C. Put plainly: NCI In Vivo Anticancer Drug Screen. Data for tumor model L1210 Leukemia (intraperitoneal) in B6D2F1 (BDF1) mice. As to conditions: T/C endpoint: mean survival time, higher T/C = longer survival.
Setting [1] is: dose: 200.0 mg/kg/injection, schedule: Q01DX009 (ip), vehicle: Klucel (hydroxypropylcellulose) (HPC).
[2] abbreviates: dose: 200.0 mg/kg/injection, schedule: Q04DX003 (ip), vehicle: Klucel (hydroxypropylcellulose) (HPC).
The mark [3] stands for this setting: dose: 400.0 mg/kg/injection, schedule: Q01DX009 (ip), vehicle: Klucel (hydroxypropylcellulose) (HPC).
Where [4] appears, read: dose: 400.0 mg/kg/injection, schedule: Q04DX003 (ip), vehicle: Klucel (hydroxypropylcellulose) (HPC).
Where [5] appears, read: dose: 150.0 mg/kg/injection, schedule: Q01DX001 (ip), vehicle: other.
Where [6] appears, read: dose: 300.0 mg/kg/injection, schedule: Q01DX001 (ip), vehicle: other.
Setting [7] is: dose: 400.0 mg/kg/injection, schedule: Q04DX002 (ip), vehicle: saline with Tween-80.
The mark [8] stands for this setting: dose: 200.0 mg/kg/injection, schedule: Q01DX001 (ip), vehicle: saline.
The mark [9] stands for this setting: dose: 400.0 mg/kg/injection, schedule: Q01DX001 (ip), vehicle: saline.
Where [10] appears, read: dose: 50.0 mg/kg/injection, schedule: Q01DX009 (ip), vehicle: Klucel (hydroxypropylcellulose) (HPC).
Where [11] appears, read: dose: 100.0 mg/kg/injection, schedule: Q01DX009 (ip), vehicle: Klucel (hydroxypropylcellulose) (HPC).
Setting [12] is: dose: 400.0 mg/kg/injection, schedule: Q04DX003 (ip), vehicle: saline.
Where [13] appears, read: dose: 200.0 mg/kg/injection, schedule: Q04DX003 (ip), vehicle: saline.

For the compound `CC(=O)[C@]1(O)Cc2c(O)c3c(c(O)c2[C@@H](OC2CC(N)C(O)C(C)O2)C1)C(=O)c1c(O)cccc1C3=O` (stereo not given in full), the T/C reads like this: (dose: 0.05 mg/kg/injection, schedule: Q01DX009 (ip), vehicle: saline) 133 % of control; (dose: 0.1 mg/kg/injection, schedule: Q01DX001 (ip), vehicle: saline) 129 % of control; (dose: 0.1 mg/kg/injection, schedule: Q01DX009 (ip), vehicle: saline) 126 % of control; (dose: 0.2 mg/kg/injection, schedule: Q01DX009 (ip), vehicle: saline) 138 % of control; (dose: 0.2 mg/kg/injection, schedule: Q03DX003 (ip), vehicle: saline) 140 % of control; (dose: 0.4 mg/kg/injection, schedule: Q01DX001 (ip), vehicle: saline) 143 % of control.
For the compound `CNCc1ccccc1C(O)c1ccc(Cl)cc1` (stereo not given), the survivor count runs as follows: (dose: 50.0 mg/kg/injection, schedule: Q04DX003 (ip), vehicle: Klucel (hydroxypropylcellulose) (HPC)) 1 of 4; (dose: 100.0 mg/kg/injection, schedule: Q04DX003 (ip), vehicle: Klucel (hydroxypropylcellulose) (HPC)) 6 of 6; under setting [1], 0 of 6; under setting [2], 4 of 6; under setting [3], 0 of 6; under setting [4], 0 of 6 and 1 of 4.
`C[C@]12CC[C@H]3[C@@H](CC[C@]4(O)C[C@@H](O)CC[C@]34/C=N/O)[C@@]1(O)CC[C@@H]2C1=COC(=O)C1`: the survivor count (dose: 15.0 mg/kg/injection, schedule: Q01DX009 (ip), vehicle: carboxymethylcellulose (CMC)) was 6 of 6.
For `O=P(N=C=S)(N=C=S)N=C=S`, the survivor count runs as follows: under setting [5], 1 of 6; under setting [6], 0 of 6.
In the case of `COc1ccc(COC(=O)NC2CCCCC2)cc1OC`, the T/C (dose: 100.0 mg/kg/injection, schedule: Q01DX009 (ip), vehicle: saline) is 128 % of control.
`O=CNc1ccc(Br)cc1`: the survivor count under setting [3] is reported as 1 of 6.
As for `O=C(O)c1cccc2c1OCO2`, the survivor count under setting [7] is recorded as 3 of 3.
As for `CCOC(=O)c1c(-c2ccccc2)csc1N`, for the setting “dose: 400.0 mg/kg/injection, schedule: Q04DX003 (ip), vehicle: saline with Tween-80”, the survivor count is 6 of 6.
In the case of `O=[N+]([O-])c1cc([N+](=O)[O-])c2ccc(S(=O)(=O)O)cc2c1O`, the survivor count under setting [2] is 0 of 6 and the survivor count under setting [4] is 0 of 6.
In the case of `CSc1nc(Cl)c(Cl)c(SC)n1` (tested in a mixture with another compound), the survivor count under setting [1] is reported as 1 of 3.
For the compound `CCCCN=C(N)N=C(N)N`, the survivor count reads like this: under setting [8], 0 of 6; under setting [9], 0 of 6.
For the compound `Nc1nc(N)nc(Cl)n1`, the survivor count (dose: 200.0 mg/kg/injection, schedule: Q04DX002 (ip), vehicle: saline with Tween-80) was 3 of 3.
Take `Nc1cc2ccccc2c2c1ccc1ccccc12`: the survivor count under setting [4] is given as 3 of 6.
Regarding `O=C(O)C(Cc1cnc[nH]1)Nc1nc(NC(Cc2cnc[nH]2)C(=O)O)[nH]c(=O)n1` (stereo not given), the survivor count is, setting by setting: under setting [10], 3 of 3; under setting [11], 3 of 3; under setting [1], 3 of 3.
In the case of `O=C(Nc1cccc(C2=NCCN2)c1)c1ccc2ccc(C(=O)Nc3cccc(C4=NCCN4)c3)cc2c1`, the survivor count reads like this: (dose: 250.0 mg/kg/injection, schedule: Q01DX Z (ip), vehicle: water) 3 of 6; (dose: 500.0 mg/kg/injection, schedule: Q01DX Z (ip), vehicle: water) 0 of 6.
Turning to `COc1ccc(-c2cnc(=O)[nH]c2N)cc1`, the survivor count under setting [4] is listed as 2 of 6.
In the case of `c1ccc2c(c1)ccc1c2ccc2cccc[n+]21`, the T/C (dose: 7.0 mg/kg/injection, schedule: Q01DX015 (ip), vehicle: saline) is 125 % of control and the T/C (dose: 10.0 mg/kg/injection, schedule: Q01DX015 (ip), vehicle: saline) was 125 % of control. Further, the survivor count (dose: 15.0 mg/kg/injection, schedule: Q01DX015 (ip), vehicle: saline) was 4 of 6; the survivor count (dose: 50.0 mg/kg/injection, schedule: Q01DX001 (ip), vehicle: saline) is 0 of 6; the survivor count (dose: 100.0 mg/kg/injection, schedule: Q01DX001 (ip), vehicle: saline) is on record as 0 of 6; the survivor count under setting [8] is 0 of 6; the survivor count under setting [9] is given as 0 of 6.
Regarding `CCCCCCC(C)S(=O)(=O)c1ccc(C)cc1` (stereo not given), the survivor count under setting [9] is listed as 4 of 4.
`Cc1ccc(S(=O)(=O)OCCCl)cc1`: the survivor count under setting [7] was 1 of 3.
Regarding `CC(=O)c1cccc(NC(=O)Oc2ccc(Cl)cc2Cl)c1`, under setting [3], the survivor count is 1 of 6.
Regarding `Cc1cc2nc(N)sc2cc1C`, the survivor count is 6 of 6 under setting [10], 6 of 6 under setting [11] and 6 of 6 under setting [2].
Turning to `CCN(CC)CCCC(C)NCCCN` (stereo not given), the survivor count (dose: 400.0 mg/kg/injection, schedule: Q01DX009 (ip), vehicle: saline) is listed as 0 of 6 and the survivor count under setting [12] is 2 of 6.
For `Oc1ccc(Sc2ccc(O)cc2)cc1`, the survivor count under setting [12] was 2 of 6.
For the compound `CN(C)CCOC(=O)c1ccccc1CCl`, the survivor count is, setting by setting: (dose: 87.5 mg/kg/injection, schedule: Q01DX009 (ip), vehicle: saline) 1 of 6; (dose: 175.0 mg/kg/injection, schedule: Q01DX009 (ip), vehicle: saline) 0 of 6; (dose: 350.0 mg/kg/injection, schedule: Q01DX009 (ip), vehicle: saline) 0 of 6.
Regarding `C[N+](C)(CCOC(=O)C1C2CC3OC(=O)C1C3C2)Cc1ccccc1` (stereo not given), the survivor count runs as follows: under setting [13], 0 of 4; under setting [12], 0 of 4.
Regarding `CC1(C)N=C(N)N=C(N)N1c1ccccc1`, the survivor count (dose: 50.0 mg/kg/injection, schedule: Q04DX003 (ip), vehicle: saline) is 2 of 6; the survivor count (dose: 100.0 mg/kg/injection, schedule: Q04DX003 (ip), vehicle: saline) is reported as 2 of 6; the survivor count under setting [13] is listed as 0 of 6; the survivor count under setting [12] is 0 of 6.
For `O=C(O)COc1ccc(Cl)cc1I`, for the setting “dose: 400.0 mg/kg/injection, schedule: Q04DX002 (ip), vehicle: Klucel (hydroxypropylcellulose) (HPC)”, the survivor count is listed as 3 of 3.
Consider `Nc1cc(I)c2cccnc2c1O`, for which the survivor count is listed as 5 of 6 (dose: 40.0 mg/kg/injection, schedule: Q01DX015 (ip), vehicle: saline) and 0 of 6 (dose: 80.0 mg/kg/injection, schedule: Q01DX015 (ip), vehicle: saline).
On to `Nc1nc(N)c(C=O)c(Cl)n1`, for which the survivor count is 4 of 4 (dose: 50.0 mg/kg/injection, schedule: Q01DX001 (ip), vehicle: alcohol); 3 of 4 (dose: 100.0 mg/kg/injection, schedule: Q01DX001 (ip), vehicle: alcohol); 1 of 4 (dose: 200.0 mg/kg/injection, schedule: Q01DX001 (ip), vehicle: alcohol); 0 of 4 (dose: 400.0 mg/kg/injection, schedule: Q01DX001 (ip), vehicle: alcohol).
Turning to `O=C(N[C@H](CO)[C@H](O)c1ccc([N+](=O)[O-])cc1)C(Cl)Cl`, the survivor count is 3 of 6 (dose: 1080.0 mg/kg/injection, schedule: Q01DX001 (ip), vehicle: carboxymethylcellulose (CMC)) and 0 of 6 (dose: 1620.0 mg/kg/injection, schedule: Q01DX001 (ip), vehicle: carboxymethylcellulose (CMC)).
In the case of `Cn1cc(/C=C\C(=O)O)c2nccnc21`, where the note is “dose: 400.0 mg/kg/injection, schedule: Q04DX003 (ip), vehicle: water”, the survivor count is on record as 2 of 6.
Consider `Brc1ccccc1C[n+]1ccc2ccccc2c1`, for which the survivor count (dose: 75.0 mg/kg/injection, schedule: Q01DX001 (ip), vehicle: other) is given as 0 of 6; the survivor count under setting [5] is reported as 0 of 6; the survivor count under setting [6] is recorded as 0 of 6.
